The record followed here is publication PMC6137056.

Data set [1] deals with UVI31+ (wild type) (Chlamydomonas reinhardtii). Description: NMR. The conditions noted are these: significant CSPs (A35 K37 F49 K50 K57 H58 A59 H76 L79 K118 T119); NMR: 50 mM Na-phosphate, 50 mM NaCl, pH 6.4, 25 C; recombinant protein; protein details: N-terminal MRGSHHHHHHGS
In data set [2] the test system is S114A-UVI31+ (Chlamydomonas reinhardtii). Description: NMR. The settings on record: minimal CSPs compared with wild type; NMR: 50 mM Na-phosphate, 50 mM NaCl, pH 6.4, 25 C; recombinant protein; protein details: N-terminal His tag, as wild type.

For at least one entry, the source does not settle the construct or the ends of the probe. For some assays here: A weaker result is weaker than the reference pair of the same experiment.

In the case of “CGCGAATTCGCG (double strand) [12-mer self-complementary ds-DNA]”, the binding result in data set [1] is “binds”; in data set [2], “binds more weakly”.
